Source: patent US20260257039A1, “CONVECTION-ENHANCED THERMO-CHEMOTHERAPY CATHETER SYSTEM” (Board of Regents, The University of Texas System, priority 2022, published 2026)

Experiment: Agarose infusions: CED of indigo carmine dye, constant flow vs constant pressure, with controlled catheter retraction
Conditions: for Vd (volume dispersed): mean±SD, n=5

O=C1/C(=C2\Nc3ccc(S(=O)(=O)[O-])cc3C2=O)Nc2ccc(S(=O)(=O)[O-])cc21.[Na+].[Na+] [indigo carmine dye, indigo carmine]
Vd:Vi (mean distribution ratio) (0.25 mm/min Const. Flow, 100 min): 22.3 ± 0.35
Vd:Vi (mean distribution ratio) (0.25 mm/min Const. Pressure, 100 min): 13.19 ± 1.21
increase in Vd (0.25 mm/min constant pressure relative to stationary constant flow catheter): 105%
increase in Vd (0.25 mm/min constant pressure vs 0.25 mm/min constant flow rate counterpart): 42%
increase in Vd (0.25 mm/min constant pressure vs stationary constant pressure): 94%
Vd (volume dispersed) (0.25 mm/min retraction, Const. Flow (1 μL/min), 100 min): 2.23 ± 0.04 mL
Vd (volume dispersed) (0.25 mm/min retraction, Const. Pressure (target 977 Pa), 100 min): 3.17 ± 0.25 mL
Vd:Vi (mean distribution ratio) (0.5 mm/min Const. Flow, 100 min): 27.4 ± 0.53
Vd:Vi (mean distribution ratio) (0.5 mm/min Const. Pressure, 100 min): 13.69 ± 0.92
increase in Vd (0.5 mm/min constant flow rate vs 0.25 mm/min constant flow rate): 23%
increase in Vd (0.5 mm/min constant pressure relative to stationary constant flow catheter): 155%
increase in Vd (0.5 mm/min constant pressure vs 0.25 mm/min constant pressure): about 25%
increase in Vd (0.5 mm/min constant pressure vs 0.5 mm/min constant flow rate counterpart): 45%
increase in Vd (0.5 mm/min constant pressure with controlled retraction, comparator not stated): 143%
Vd (volume dispersed) (0.5 mm/min retraction, Const. Flow (1 μL/min), 100 min): 2.74 ± 0.05 mL
Vd (volume dispersed) (0.5 mm/min retraction, Const. Pressure (target 977 Pa), 100 min): 3.96 ± 0.19 mL
Vd (volume dispersed) (Stationary Const. Flow (1 μL/min), 100 min infusion): 1.55 ± 0.03 mL
Vd:Vi (mean distribution ratio) (Stationary Const. Flow, 100 min): 15.5 ± 0.32
Vd (volume dispersed) (Stationary Const. Pressure (target 977 Pa), 100 min): 1.63 ± 0.07 mL
Vd:Vi (mean distribution ratio) (Stationary Const. Pressure, 100 min): 14.71 ± 0.63
